PubChem BioAssay AID504774 – Drosophila RNAi Screening Center – 2011
Assay: 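Knock-downs that shift viability of MMS-exposed cells relative to untreated ones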 (primary screen). Cells: Drosophila Kc167 cells. Knock-down reagent: long dsRNA against Drosophila genes, about 0.25 µg dsRNA per well. Timing: about 6 days: 3 days knock-down, then 3 days with or without MMS. Challenge: methyl methanesulphonate 0.004% (w/v) for 3 days after knock-down. Measured: 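ATP-dependent luminescence as a measure of live cells in MMS-exposed wells, quantile normalised within each plate, with replicate values also given as a mean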. Reading the numbers: mean viability with MMS: higher = more surviving cells after MMS.
In all, the deposit lists about 23,000 reagents; shown is a random part of those with a known target gene and a result. 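Values are quantile-normalised luminescence on an arbitrary scale; higher means more cells surviving MMS.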 Further read-outs or replicates are left out here.

What did the screen give for CG31098 (GeneID 43057) [DRSC14259]?
mean viability with MMS: 3.46e6

What did the screen give for CG18179 (GeneID 39124) [DRSC10303]?
mean viability with MMS: 3.64e6

With JMJD7 (GeneID 39514) [DRSC09703], how do the results read?
mean viability with MMS: 1.90e6

How did the screen score Sec63 (GeneID 38819) [DRSC11002]?
mean viability with MMS: 3.52e6

What is on record for CG14095 (GeneID 40112) [DRSC10098]?
mean viability with MMS: 3.53e6

With CG14841 (GeneID 41735) [DRSC14965], what was measured?
mean viability with MMS: 3.60e6

For Kif19A (GeneID 41717) [DRSC16576], what does the deposit list?
mean viability with MMS: 1.85e6

For CG42258 (GeneID 32196) [DRSC19741], what does the deposit list?
mean viability with MMS: 3.49e6

For CG42258 (GeneID 32196) [DRSC19783], what does the deposit list?
mean viability with MMS: 2.98e6

What did the screen give for CG42258 (GeneID 32196) [DRSC23161]?
mean viability with MMS: 3.31e6

For yellow-g2 (GeneID 38295) [DRSC08338], how do the results read?
mean viability with MMS: 3.57e6

For CG8032 (GeneID 41026) [DRSC16365], how do the results read?
mean viability with MMS: 3.54e6

For Hsp60D (GeneID 34763) [DRSC02543], how do the results read?
mean viability with MMS: 3.63e6

What did the screen give for Prp4k (GeneID 38032) [DRSC08144]?
mean viability with MMS: 3.38e6

Laid out differently: 2 of the entries above
{"Target gene": "Hsp60D (GeneID 34763)", "dsRNA": "DRSC02543", "mean viability with MMS": 3.63e6}
{"Target gene": "Prp4k (GeneID 38032)", "dsRNA": "DRSC08144", "mean viability with MMS": 3.38e6}
